Construct, isoform or probe ends are uncertain for at least one entry. For some of these results: At least one result comes from cells or an extract, where the contact may be indirect.

Protein sequences, listed by entry. Tags and fused reporters are not part of them. Lines headed by an entry give the natural chain unless they say otherwise; changes in a name come on top.
UniProt O14746: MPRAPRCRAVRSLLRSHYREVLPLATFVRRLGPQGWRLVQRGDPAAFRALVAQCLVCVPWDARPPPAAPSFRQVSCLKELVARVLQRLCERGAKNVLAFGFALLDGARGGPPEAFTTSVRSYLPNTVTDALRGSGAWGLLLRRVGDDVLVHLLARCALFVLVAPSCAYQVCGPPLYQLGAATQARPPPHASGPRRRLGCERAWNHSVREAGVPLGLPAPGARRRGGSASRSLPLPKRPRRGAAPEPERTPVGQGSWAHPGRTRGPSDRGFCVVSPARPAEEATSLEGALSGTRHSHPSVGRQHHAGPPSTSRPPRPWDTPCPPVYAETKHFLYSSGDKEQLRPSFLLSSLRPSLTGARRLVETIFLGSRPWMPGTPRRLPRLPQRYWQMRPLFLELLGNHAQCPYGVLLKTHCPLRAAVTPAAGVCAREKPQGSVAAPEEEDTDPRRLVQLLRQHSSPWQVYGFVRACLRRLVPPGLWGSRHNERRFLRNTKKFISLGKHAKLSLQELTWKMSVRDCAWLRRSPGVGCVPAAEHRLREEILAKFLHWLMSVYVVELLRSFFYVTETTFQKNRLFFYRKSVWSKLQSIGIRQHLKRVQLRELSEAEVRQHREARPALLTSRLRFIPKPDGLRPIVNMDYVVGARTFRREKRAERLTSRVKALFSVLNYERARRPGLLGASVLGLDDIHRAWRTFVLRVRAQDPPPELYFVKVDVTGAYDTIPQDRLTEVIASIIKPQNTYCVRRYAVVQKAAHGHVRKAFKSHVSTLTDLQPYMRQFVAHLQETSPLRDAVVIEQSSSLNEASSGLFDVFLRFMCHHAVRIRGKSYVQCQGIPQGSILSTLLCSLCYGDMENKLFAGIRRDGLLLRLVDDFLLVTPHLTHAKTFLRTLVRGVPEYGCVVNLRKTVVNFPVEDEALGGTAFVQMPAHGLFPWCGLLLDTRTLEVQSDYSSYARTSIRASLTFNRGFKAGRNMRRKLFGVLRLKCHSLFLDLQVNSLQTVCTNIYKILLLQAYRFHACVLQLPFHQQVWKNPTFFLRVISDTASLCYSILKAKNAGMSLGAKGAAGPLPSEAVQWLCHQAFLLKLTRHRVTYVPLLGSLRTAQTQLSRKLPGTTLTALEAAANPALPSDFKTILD

Experimental findings from paper PMC4600948 are described below.

Data set [1] concerns the target MCP-TERT telomerase holoenzyme (293T, WT) (Homo sapiens) (UniProt O14746). Kind of data set: single-molecule TIRF, immobilized TERT. Particulars: DNA 0.3-30 nM (and 100 nM), 15 min, 500 nM blocking oligo pre-incubation, wash before imaging, protein in a lysate after overexpression, residues 1-1132, protein details: 3xFLAG-MCP N-terminal, biotin or Cy5 via CoA, label: 5'-Cy5, single-stranded DNA.

The target in data set [2] is MCP-TERT minimal RNP (RRL, WT) (Homo sapiens) (UniProt O14746). As to the kind of experiment: single-molecule TIRF, immobilized TERT. Particulars: DNA 0.3-30 nM (and 100 nM), 15 min, 500 nM blocking oligo pre-incubation, wash before imaging, residues 1-1132, protein details: 3xFLAG-MCP N-terminal, biotin or Cy5 via CoA, label: 5'-Cy5, single-stranded DNA.

As a reminder, the Kd is a measure of binding affinity in units of concentration. For the sequence TTAGGGTTAGGG [Cy5-(T2AG3)2], the Kd in data set [1] (293T-F, hTR RNP plus hTR-free TERT, ~4-fold more binding at 100 vs 30 nM) is 5.4 nM; in data set [1] (293T-O, hTR RNP, no added binding at 100 vs 30 nM), 4.9 nM; in data set [2] (RRL-F, hTRmin RNP plus hTR-free TERT, protein translated in …), 14.7 nM; in data set [2] (RRL-O, hTRmin RNP, protein translated in vitro) it was 8.7 nM.
